These are yes or no findings as the source states them, for the method shown. For some assays here: Binding calls can cover weak binding; strength is not graded here. For some assays here: Binding seen in cells or lysates may run through a third protein. For some assays here: Sequences can lack the tags named with a protein.

Experiment [1] has as its target T1, FLAG-tagged LRRC4B(36-576) (human) (UniProt Q9NT99).
T1 sequence: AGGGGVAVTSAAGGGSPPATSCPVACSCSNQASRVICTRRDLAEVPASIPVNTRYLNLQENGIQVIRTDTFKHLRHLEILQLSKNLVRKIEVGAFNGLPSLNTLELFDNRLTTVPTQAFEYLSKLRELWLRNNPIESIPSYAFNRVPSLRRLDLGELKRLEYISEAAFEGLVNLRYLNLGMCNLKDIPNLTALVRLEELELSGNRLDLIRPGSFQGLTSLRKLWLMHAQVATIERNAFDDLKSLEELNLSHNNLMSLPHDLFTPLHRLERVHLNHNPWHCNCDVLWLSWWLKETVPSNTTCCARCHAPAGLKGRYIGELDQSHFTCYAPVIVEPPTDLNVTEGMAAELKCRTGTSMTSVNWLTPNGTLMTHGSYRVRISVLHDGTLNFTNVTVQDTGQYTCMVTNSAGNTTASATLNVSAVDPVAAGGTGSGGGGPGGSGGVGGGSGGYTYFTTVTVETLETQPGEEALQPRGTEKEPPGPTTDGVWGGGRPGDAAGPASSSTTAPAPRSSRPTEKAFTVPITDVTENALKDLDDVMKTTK
Put plainly: co-IP.

Experiment [2] concerns the target T2, FLAG-tagged LRRC4B(364-713) (human) (UniProt Q9NT99).
T2 sequence: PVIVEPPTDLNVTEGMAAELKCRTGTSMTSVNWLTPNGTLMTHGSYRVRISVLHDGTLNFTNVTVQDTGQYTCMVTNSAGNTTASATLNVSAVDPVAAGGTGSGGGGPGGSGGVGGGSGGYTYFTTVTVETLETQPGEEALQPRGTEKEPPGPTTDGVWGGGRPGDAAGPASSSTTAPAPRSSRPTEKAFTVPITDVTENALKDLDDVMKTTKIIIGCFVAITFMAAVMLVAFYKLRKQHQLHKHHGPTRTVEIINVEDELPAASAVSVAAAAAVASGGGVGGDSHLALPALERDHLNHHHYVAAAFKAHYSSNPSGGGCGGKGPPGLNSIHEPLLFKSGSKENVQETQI
Put plainly: co-IP.

The target of experiment [3] is T3, FLAG-tagged LRRC4B(364-576) (human) (UniProt Q9NT99).
T3 sequence: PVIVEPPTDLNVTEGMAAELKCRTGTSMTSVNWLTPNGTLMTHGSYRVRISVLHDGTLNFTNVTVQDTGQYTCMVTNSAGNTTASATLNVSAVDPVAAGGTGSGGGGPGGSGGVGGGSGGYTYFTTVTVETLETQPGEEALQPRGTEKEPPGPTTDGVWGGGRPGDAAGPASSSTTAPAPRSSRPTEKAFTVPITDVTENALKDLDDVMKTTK
In words: co-IP.

Experiment [4] has as its target T4, FLAG-tagged LRRC4B full-length (36-713) (human) (UniProt Q9NT99).
T4 sequence: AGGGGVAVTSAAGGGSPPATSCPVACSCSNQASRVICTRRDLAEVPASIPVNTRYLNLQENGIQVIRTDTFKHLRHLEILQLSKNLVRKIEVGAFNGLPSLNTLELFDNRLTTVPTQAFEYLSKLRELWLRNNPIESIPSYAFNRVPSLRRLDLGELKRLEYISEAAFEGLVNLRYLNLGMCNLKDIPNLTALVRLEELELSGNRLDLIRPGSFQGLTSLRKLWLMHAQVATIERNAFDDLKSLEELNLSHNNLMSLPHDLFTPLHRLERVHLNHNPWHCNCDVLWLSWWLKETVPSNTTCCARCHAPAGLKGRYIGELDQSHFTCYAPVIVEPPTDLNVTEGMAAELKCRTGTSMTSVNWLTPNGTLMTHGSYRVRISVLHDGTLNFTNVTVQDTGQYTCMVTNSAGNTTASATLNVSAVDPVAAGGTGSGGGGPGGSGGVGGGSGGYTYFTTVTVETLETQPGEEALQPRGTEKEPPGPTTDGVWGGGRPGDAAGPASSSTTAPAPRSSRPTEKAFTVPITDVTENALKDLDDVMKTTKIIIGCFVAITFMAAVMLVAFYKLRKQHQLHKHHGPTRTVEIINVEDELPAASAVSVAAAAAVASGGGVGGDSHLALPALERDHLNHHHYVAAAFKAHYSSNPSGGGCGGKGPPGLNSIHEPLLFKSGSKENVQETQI
In words: co-IP.

The target in experiment [5] is T5, FLAG-tagged LRRC4B(230-713) (human) (UniProt Q9NT99).
T5 sequence: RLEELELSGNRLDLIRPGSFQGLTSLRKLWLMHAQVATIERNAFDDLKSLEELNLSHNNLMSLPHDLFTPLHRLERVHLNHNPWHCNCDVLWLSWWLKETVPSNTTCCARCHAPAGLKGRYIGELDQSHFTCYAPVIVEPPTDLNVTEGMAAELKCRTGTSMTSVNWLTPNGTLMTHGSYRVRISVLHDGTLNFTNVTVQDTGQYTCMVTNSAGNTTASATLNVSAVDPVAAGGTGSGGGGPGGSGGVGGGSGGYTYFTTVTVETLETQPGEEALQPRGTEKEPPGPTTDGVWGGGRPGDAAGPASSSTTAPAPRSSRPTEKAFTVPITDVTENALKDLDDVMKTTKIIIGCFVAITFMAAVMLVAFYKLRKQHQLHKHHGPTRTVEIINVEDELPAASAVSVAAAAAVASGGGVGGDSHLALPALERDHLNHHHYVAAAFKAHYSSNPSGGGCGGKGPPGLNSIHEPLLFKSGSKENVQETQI
In words: co-IP.

Experiment [6] has as its target T6, FLAG-tagged LRRC4B(453-576) (human) (UniProt Q9NT99).
T6 sequence: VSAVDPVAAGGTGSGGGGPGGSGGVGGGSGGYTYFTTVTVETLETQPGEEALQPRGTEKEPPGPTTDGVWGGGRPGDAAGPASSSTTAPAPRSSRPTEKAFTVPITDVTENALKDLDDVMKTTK
Put plainly: co-IP.

Experiment [7] deals with T7, FLAG-tagged LRRC4B(484-576) (human) (UniProt Q9NT99).
T7 sequence: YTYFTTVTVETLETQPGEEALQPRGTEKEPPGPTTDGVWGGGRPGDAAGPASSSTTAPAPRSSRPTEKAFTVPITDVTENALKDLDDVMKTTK
In words: co-IP.

The target in experiment [8] is T8, FLAG-tagged LRRC4B(157-713) (human) (UniProt Q9NT99).
T8 sequence: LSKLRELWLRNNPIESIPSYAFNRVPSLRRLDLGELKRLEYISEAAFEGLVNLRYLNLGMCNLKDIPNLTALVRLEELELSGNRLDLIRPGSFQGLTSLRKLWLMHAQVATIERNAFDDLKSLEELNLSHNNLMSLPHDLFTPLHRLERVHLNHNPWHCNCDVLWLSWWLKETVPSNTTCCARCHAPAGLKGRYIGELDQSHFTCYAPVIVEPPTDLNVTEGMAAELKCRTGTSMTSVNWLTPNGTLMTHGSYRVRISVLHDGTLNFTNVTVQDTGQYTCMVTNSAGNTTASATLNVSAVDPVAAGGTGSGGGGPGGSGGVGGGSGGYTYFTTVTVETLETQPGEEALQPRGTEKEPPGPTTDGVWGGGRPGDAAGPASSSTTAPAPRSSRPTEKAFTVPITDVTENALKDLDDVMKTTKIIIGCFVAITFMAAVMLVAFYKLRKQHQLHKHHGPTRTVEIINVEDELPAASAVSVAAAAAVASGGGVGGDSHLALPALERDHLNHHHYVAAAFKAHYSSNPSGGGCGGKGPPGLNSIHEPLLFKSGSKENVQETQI
In words: co-IP.

Experiment [9] concerns the target T9, FLAG-tagged LRRC4B(453-713) (human) (UniProt Q9NT99).
T9 sequence: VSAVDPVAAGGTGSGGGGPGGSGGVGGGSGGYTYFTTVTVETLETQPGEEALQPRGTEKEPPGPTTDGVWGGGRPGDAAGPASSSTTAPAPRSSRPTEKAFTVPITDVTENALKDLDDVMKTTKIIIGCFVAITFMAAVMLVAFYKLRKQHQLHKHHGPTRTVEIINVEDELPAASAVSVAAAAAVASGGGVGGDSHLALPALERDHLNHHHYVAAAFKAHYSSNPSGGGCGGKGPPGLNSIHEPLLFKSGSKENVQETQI
Put plainly: co-IP.

The target of experiment [10] is T10, LRRC4B(36-576)-hFc (human) (UniProt Q9NT99).
T10 sequence: T1 sequence
Put plainly: ELISA. In general terms: ELISA stands for enzyme-linked immunosorbent assay.

For experiment [11], the target named is T11, LRRC4B(498-576)-hFc (human) (UniProt Q9NT99).
T11 sequence: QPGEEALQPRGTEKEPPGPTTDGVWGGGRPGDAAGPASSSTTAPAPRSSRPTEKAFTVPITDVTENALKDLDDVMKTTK
Put plainly: ELISA.

For the substance “FAM19A5 (wild type, recombinant) (human) (ligand)”, the binding entry in experiment [1], in experiment [2], in experiment [3], in experiment [4], in experiment [5] and in [6] was “binds” each time. Besides, the binding entry is “binds” in experiment [7]; “binds” in experiment [8]; “binds” in [9]; “binds” in [10]; “no binding” in [11].

The values above are taken from publication doi:10.1101/2023.11.22.568357 (bioRxiv, 2023).
